Measured values published in patent publication US20180037649A1 (OSAKA UNIVERSITY, published 2018).

How the values were obtained:
Experiment in all cases: co-IP with anti-FLAG antibody from X293T/Dkk1-FLAG cell lysate, immunoblot with anti-HA antibody
[1] = biological target: deletion mutant CKAP4-HA ΔC1
[2] = biological target: deletion mutant CKAP4-HA ΔC2
[3] = biological target: deletion mutant CKAP4-HA ΔC3

binding [1]: binds | binding [2]: no binding | binding [3]: no binding
B1: Dkk1-FLAG (wild-type human Dkk1 tagged with FLAG at the C-terminal) (ligand, UniProt O94907 32-266, looked up)
chain: TLNSVLNSNAIKNLPPPLGGAAGHPGSAVSAAPGILYPGGNKYQTIDNYQPYPCAEDEECGTDEYCASPTRGGDAGVQICLACRKRRKRCMRHAMCCPGNYCKNGICVSSDQNHFRGEIEETITESFGNDHSTLDGYSRRTTLSSKMYHTKGQEGSVCLRSSDCASGLCCARHFWSKICKPVLKEGQVCTKHRRKGSHGLEIFQRCYCGEGLSCRIQKDHHQASNSSRLHTCQRH
notes: Expressed in MDCK or X293T cells; pulled down from cell lysates with an anti-FLAG antibody; also called WT-FLAG; wild-type Dkk1-FLAG (WT); not shown: FLAG tag at the C-terminal

Results are given in words; binding and its absence hold for the method and conditions named. Binding seen in cells or lysates may run through a third protein. For part of these data: Binding calls can cover weak binding; strength is not graded here. Sequences can lack the tags named with a protein.
